Assay results as given in PubChem BioAssay AID2002 (Broad Institute, 2009).
The other results are listed elsewhere or left out. Entries with a potency or affinity are not part of this list. Entries without a call are filed as inconclusive in the source.

Test: PubChem AID 2002
Conditions: H4 neuroglioma luciferase reporter, luminescence activation; at 12 µM (top of the series) unless noted

Row | SMILES | activation
1 | COC(=O)CCN1CCc2cc(N=Nc3ccc([N+](=O)[O-])cc3)ccc21 | 37.1%
2 | O=C(CCl)N(c1ccccc1)C1CCS(=O)(=O)C1 (stereo unspecified) | 3%
3 | N#C/C(=C\c1ccc(N2CCCCC2)o1)C(=O)Nc1cccc(Br)c1 | 178%
4 | Cc1cccc(NC(=O)Nc2ccc3c(c2)OCO3)n1 | 152%
5 | c1ccc(N2CCN(c3nc4cc5c(cc4s3)OCO5)CC2)cc1 | 178% [at 6 µM]
6 | CCOC(=O)c1ccc(-c2ccc(/C=N/NC(=O)c3cncc(Br)c3)o2)cc1 | 82.9%
7 | CCc1cc2c(=O)n3c(nc2s1)-c1[nH]c2ccc(OC)cc2c1CC3 | 99.6%
8 | Nc1c(C(=O)Nc2ccccc2Cl)nnn1-c1ccc2c(c1)OCCO2 | 103%
9 | O=c1c2c3c(sc2nc2n1N=C(c1cccs1)CS2)CCCC3 | 108%
10 | Cc1cc(C)c(NN=c2c(=O)c3ccccc3c2=O)c(C)c1 | 100%
11 | COC(=O)C1C(=O)c2c([nH]c(C(=O)OC3CCCCC3)c2C)CC1C (stereo unspecified) | 119%
12 | CC(C)(C)c1csc(NC2=NS(=O)(=O)c3ccccc32)n1 | 133%
13 | Cn1c(-c2ccc(F)cc2)cnc1SCC(=O)Nc1ccccc1N1CCOCC1 | 81.9%
14 | O=[N+]([O-])C(/C=C(\Cl)[N+](=O)[O-])=C(N1CCCCC1)N1CCCCC1 | 49.2% [at 6 µM]
15 | C=CCn1c(C)nc2c(sc3nc4c(cc32)COC(C)(C)C4)c1=O | 87.9%
16 | COc1ccc(C2CC(c3ccc4ccccc4c3)=NN2C(=O)COC(=O)C2CCC(=O)N2)cc1 (stereo unspecified) | 286% [at 6 µM]
17 | Cn1c(-c2nnn(-c3ccc(F)cc3)n2)cc2ccccc21 | 116%
18 | CCN1C(=S)SC(=O)C1=C1C=C(C)N(Cc2ccco2)C(C)=C1 | 83.2%
19 | COc1ccc(NC(=O)c2cc3ccccc3o/c2=N\NS(=O)(=O)c2ccc(C)cc2)cc1 | 61.5%
20 | Cc1ccc(CNC(=O)/C=C/c2cccs2)cc1 | 88.6%
21 | COc1ccc(C(=O)Nc2ccccc2C(=O)N/N=C/c2cccc3ccccc23)cc1 | 55.8%

Sorted by length of the SMILES (ascending): 4 of the compounds above
Row | SMILES | activation
4 | Cc1cccc(NC(=O)Nc2ccc3c(c2)OCO3)n1 | 152%
17 | Cn1c(-c2nnn(-c3ccc(F)cc3)n2)cc2ccccc21 | 116%
3 | N#C/C(=C\c1ccc(N2CCCCC2)o1)C(=O)Nc1cccc(Br)c1 | 178%
13 | Cn1c(-c2ccc(F)cc2)cnc1SCC(=O)Nc1ccccc1N1CCOCC1 | 81.9%

Later entries.

Row | SMILES | activation
22 | N#C/C(=N\Nc1ccccc1)C(=N)N1CCCCCC1 | 103%
23 | Clc1ccccc1/C=N/Nc1cc(N2CCOCC2)ncn1 | 150%
24 | Nc1c(C(=O)c2ccccc2)oc2ccc(Br)cc12 | 150%
25 | O=C(N=c1nc2ccccn2s1)c1ccccc1 | 121%
26 | N#CC(C#N)=c1ccc2c(c1)NC1(CCCCC1)N=2 | 58.3% [at 6 µM]
27 | O=C1N=C(N2CCOCC2)S/C1=C1\C(=O)N(Cc2ccccc2)c2ccccc21 | 112%
28 | O=C(Nc1ccc(-c2cn3ccccc3n2)cc1)c1ccco1 | 59.2%
29 | CC(C)(C)c1cc(NC(=O)Nc2ccccc2)no1 | 119%
30 | O=C(O)c1ccc(N/N=C/c2ccc(-c3cc(Cl)ccc3Cl)o2)cc1 | 114%
31 | Cc1ccnc(SCc2nc3ccccc3s2)n1 | 96.3%
32 | Oc1[nH]c2ccccc2c1C=Nc1ccc2c(c1)OCO2 | 135%
33 | CN(C)c1ccc(/C=N/n2ncc3ccccc32)cc1 | -35.1%
34 | Cc1cccc(-c2cc3nc4c(c(N5CCOCC5)n3n2)CCCC4)c1 | 55.9% [at 3 µM]
35 | Cc1ccccc1/C=C/c1nc2ccccc2c(=O)[nH]1 | 76.5%
36 | Cc1cccc(COc2ccc(/C=N/NC(=O)c3nnn(-c4nonc4N)c3COc3ccc(F)cc3)cc2)c1 | 43.7%
37 | c1ccc2c(c1)oc1c(Nc3ccc(CN4CCOCC4)cc3)ncnc12 | 120% [at 3 µM]
38 | CCCCOc1ncnc2c1[nH]c1ccc(OC)cc12 | 72.1%
39 | CCOC(=O)CSc1nc(-c2ccc3c(c2)OCO3)ccc1C#N | 115%
40 | O=C(N/N=C\c1cccc(Cl)c1)c1n[nH]c2c1CCCC2 | 134%
41 | Cc1ccc(N=Cc2c(O)[nH]c3ccccc23)c([N+](=O)[O-])c1 | 95.7%
42 | COc1ccc(-c2cc(C(=O)Nc3cccc(Cl)c3)no2)cc1 | 154%

Row | SMILES | activation
43 | O=C(NC1CC1)c1cccc(Nc2ccc(-c3ccc4c(c3)OCCO4)nn2)c1 | 61.6%
44 | O=C(Nc1cccc(Cl)c1)c1ccc2c(=O)n3c(nc2c1)CCCCC3 | 98.3%
45 | CC(C)c1ccc(/C=N/NC(=O)c2cccc(Cl)c2)cc1 | 122%
46 | O=C(NC1CCCC1)c1cc(-c2cccs2)on1 | 67.2%
47 | Cc1ccc2cc(CCNC(=O)c3cccs3)c(=O)[nH]c2c1C | 93.3%
48 | COc1cccc(-c2cn3nc(C)c(C)nc3n2)c1 | 130% [at 6 µM]
49 | O=C(Nc1nc2ccsc2c(=O)s1)c1ccc(F)cc1 | 128%
50 | O=C(NCCC1=CCCCC1)NC12CC3CC(CC(C3)C1)C2 | 156%
51 | Cn1c(C(=O)Nc2ccc3c(c2)OCO3)cc2sccc21 | 120%
52 | CCN1C(=O)/C(=C/N2CCc3ccccc32)SC1=S | 152% [at 6 µM]
53 | CCOC(=O)c1c(-c2ccccc2)cn2c(C)cc(C)nc12 | 178%
54 | Cc1ccc(Nc2nc3ccccc3[nH]2)nc1 | 213% [at 6 µM]
55 | N#Cc1c(NC(=O)C2CCCO2)sc2c1CCCCC2 (stereo unspecified) | 154% [at 6 µM]
56 | Nc1c(C(=O)Nc2ccc3c(c2)OCCO3)nnn1Cc1ccc(Br)cc1 | 131%
57 | Cc1cc(C(=O)CSc2nc3ccccc3o2)c(C)n1CC1CCCO1 (stereo unspecified) | 11.6%
58 | Cn1cccc1/C=C1\CCC/C(=C\c2cccn2C)C1=O | 140%
59 | COc1c(C)cccc1C(=O)Nc1ccc(N2CCOCC2)c(Cl)c1 | 195% [at 6 µM]
60 | Clc1ccc(-c2nsc(N3CCOCC3)n2)c(Cl)c1 | 16%
61 | Cc1ccc(N=Nc2c(C)[nH]n(C(N)=S)c2=O)cc1C | 236%
